Drawing on PubChem BioAssay AID1347423 (Functional Genomics Laboratory (NCATS/FGL), 2020), this text covers z-score for 66 sequences.

About 210 (0.4%) of roughly 52,000 sequences were called active.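 The calls were made as follows: active = gene whose silencing raises cell survival under the drug, median off-target-corrected z-score across its silencing RNAs 2 or more; inactive = the rest.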 This is one part of the list.

The nature of this assay: Resistance to Poly (ADP-Ribose) Polymerase inhibitor: Gene Identification via Genome-wide siRNA Screen. Particulars: mouse BRCA2 R2336H ES cells, olaparib, CellTiter-Glo viability; active compounds read high. A digest of the protocol:
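Mouse BRCA2 R2336H ES cells were reverse-transfected with siRNA (20 nM final), treated at 48 h with 500 nM olaparib, and read by CellTiter-Glo after 72 h. Scores: MAD-based z per siRNA, median per gene, seed off-target correction.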
In general terms: ATP-based viability assays read luminescence as a measure of living cells.
Turning to CCUGGUCUUACACCUGUCATT against Spire1, the z-score was inactive: -0.692.

With GGAGAAGUUGAAGUCCUUCTT against Msr1, the z-score was inactive: -0.521.

Consider GGCCUUGGGAAAUUACAGGTT against Wnt6, for which the z-score was inactive: -0.635.

ACACUGGAGUGAACAACGUTT against Gm741: the z-score is inactive: 0.71.

Consider ACUAGACUGAACUACCUGATT against Gm1313, for which the z-score was inactive: 0.284.

On to CCCAUACUAAAAUUGUUGATT against Adam29, for which the z-score was active: 2.32.

Consider GGUUGGAAAUUGGACAGGATT against Col6a3, for which the z-score is inactive: 0.0572.

As for GCUGAAUGAGAUCUUGAAATT against Hand2, the z-score was inactive: 1.44.

With GGGUAUGGGAGAAUGAUUATT against Elovl3, the z-score was inactive: 0.693.

Turning to GGGAAAAGUGACUAGGCUUTT against Ngb, the z-score was inactive: 0.706.

CCAGACACGCAUUGCGAAATT against H2-M2: the z-score is inactive: 0.844.

Consider GGACUCAAGCUAGAACACATT against Col16a1, for which the z-score is inactive: 0.00287.

As to CCGAAUUGAAAUCACAAGCTT against Nup43, the z-score is inactive: 0.478.

Turning to GCAUCCCGACUACAAGUACTT against Sox21, the z-score was inactive: -0.084.

As to GACAAAACUCAUUGUUCUUTT against Taf11, the z-score is inactive: -0.128.

As to GCUCUGACCAUCCUUAGCUTT against Olfr938, the z-score is inactive: -1.14.

With GCUUAAAGCUAACCUAAUGTT against Dyrk3, the z-score was inactive: 0.0765.

On to “GGGAAGAUCAGGGAUGCUCTT against 1810055D05Rik”, for which the z-score is inactive: -0.339.

Consider GCAUCACUUACAGAUAGACTT against Olfr305, for which the z-score is inactive: 1.75.

Turning to GGCAUUCGAAGGGACAGAUTT against Arg2, the z-score was inactive: -0.343.

In the case of “GGUUUCUUCAUCUUGUAUUTT against 9430022F06Rik”, the z-score is inactive: 0.485.

Consider “GGACAGACUGAAUGAGCAGTT against 2210404D11Rik”, for which the z-score is inactive: 0.896.

As for GGAAACGUAUUUAAAUCCATT against Zfp312, the z-score is inactive: 1.13.

With GGAGAUCCCGUCACUAUCUTT against BC027309, the z-score was inactive: 0.109.

For the sequence GGAGAUGACGUGAAAACAATT against Srf, the z-score is inactive: 1.93.

On to GGAUGUGUCAGGAAAAUAGTT against Ctsm, for which the z-score was inactive: -1.29.

On to GGUGUCUAUCUUCAACCCATT against Olfr132, for which the z-score is inactive: -0.0869.

As to GCAUGAAAAGGUAUUACUCTT against Sec15l1, the z-score is inactive: 0.131.

Consider CCAUUUUAGCCAUCUGGUATT against Slc5a4b, for which the z-score is inactive: 1.35.

Regarding CCAGGGUGGUCUUUUGAAGTT against Sui1-rs1, the z-score was inactive: 0.537.

With GGAGAAAAGCAAUAAUGAATT against Klf12, the z-score was inactive: -0.103.

With CCCAAAUGAUUGGAUCUGUTT against Tnfsf5, the z-score was inactive: -0.393.

With GGGUUACUGCUUUGAUAGUTT against Tacstd1, the z-score was inactive: 0.16.

As to CCGAAUUCGGUUUAAGCUCTT against Gtf2ird1, the z-score was inactive: 0.247.

Take GGUAGAUGAACUUUAAAGATT against Syt13: the z-score is inactive: 1.37.

Regarding GGCUGAGAAGCAGACUUCCTT against BC056929, the z-score is inactive: 0.0329.

With “GGUGAAAAUGACCUGGUGATT against 4732429D16Rik”, the z-score was inactive: 0.841.

On to GGAGAUUUACCGCUACAGUTT against Scrib, for which the z-score is inactive: 0.424.

Take GGAAAGAGAAAAACAACCATT against Cngb3: the z-score was inactive: -0.0221.

For “GGACAUCAUAUUCGUUUUCTT against C130026L21Rik”, the z-score was inactive: -0.436.

Regarding GGAAAUAGUACAGAAACCATT against Mcph1, the z-score is inactive: 0.14.

Consider GGCACACUCUCGCAUCUAATT against Lcn4, for which the z-score is inactive: -3.28.

With CCAGGUUGUAAAAACAGUUTT against Rdx, the z-score is inactive: -0.213.

Take CCAAAACCGCACAGUAGUATT against Olfr1065: the z-score is inactive: -1.96.

With AAACGAUUCUGCAUUUAGCTT against Crh, the z-score was inactive: 1.04.

Take “GGCUGAUUUAUACUGGAAATT against 1110020A09Rik”: the z-score was inactive: 0.803.

Turning to GCCUGGACAAGUUUCUGAATT against Olfr726, the z-score is inactive: 0.482.

On to “GGCAGGUGUCAGAAAUUUCTT against 9030221M09Rik”, for which the z-score is inactive: 0.0961.

In the case of GCAGUUACCAGAGAUUGUCTT against AI790205, the z-score was inactive: -2.16.

Regarding “GCAGCUUGAGUUCUCGAAUTT against C030030A07Rik”, the z-score was inactive: -0.229.

For the sequence GGAAGUGGUUUGAGCCAUCTT against Slc37a4, the z-score is inactive: -0.899.

For the sequence CGAUUCUGAAGCUCCCAUCTT against Olfr684, the z-score is inactive: 0.786.

For the sequence GCCGCCUCAAACUGGAUAATT against Hdac7a, the z-score is inactive: -0.203.

With GGUGGAGUUUGACGAUUCCTT against Car5a, the z-score was inactive: -0.334.

GGAGGAGGACAUCUUCAUCTT against Pex11c: the z-score was inactive: 0.689.

Turning to CCUCCUGAGGAAACGAUUUTT against Tdh, the z-score is inactive: -1.11.

Take “CGAUAUGGCUGGAUUCCAUTT against 4930471G03Rik”: the z-score is inactive: 0.317.

Turning to GCAUUCCAUGGUACAGGGUTT against Adamts4, the z-score is inactive: -0.499.

For “GCAGUGUAUACCUGGGCUATT against 1700001C19Rik”, the z-score is inactive: -0.699.

Take GGAGCAGCUGAGAGAAAAATT against BC050811: the z-score is inactive: -0.0619.

In the case of “GGAUCCUUCUCUGUAAUAUTT against 3110003A22Rik”, the z-score is inactive: -1.09.

Consider GGAACCCUCCGAAGACUAUTT against Pml, for which the z-score was inactive: -1.24.

Take GGCCAAGACCUCAGAGAUUTT against Apoa2: the z-score was inactive: -0.125.

As for GCCUGAUUGACUUAGAGUCTT against Eps8, the z-score is inactive: 1.83.

With GCAUCCAUCUCCAUCAUGGTT against Olfr988, the z-score is inactive: -0.627.

With GGCCCUUUAAAAAUAAAGCTT against Ppp1r14b, the z-score is inactive: 0.0429.
